Measured values: patent US20100093018A1, “CELLS […] PROTEINS AND ASSAYS USING SUCH CELLS” (ACHILLION PHARMACEUTICALS, INC., priority 2007, published 2010)
For at least one compound, name, drawing or mass did not settle the structure.

Legend:
HCV NS4A protein = biological target: T1, HCV NS4A protein (Hepatitis C virus genotype 1b, UniProt Q9WMX2); experiment: NS4A dimerization assay in NS4A-cV5/NS4A-FLAG co-transfected cells; assay type: cell-based; conditions: cells transfected with either NS4A-cFlag or NS4A-cV5, FIG. 19
T1 construct: initiator Met (ATG directly before the NS4A codons) (N); expressed in transfected cells; host or cells: Huh-7
T1 sequence (Q9WMX2 1658-1711) 1: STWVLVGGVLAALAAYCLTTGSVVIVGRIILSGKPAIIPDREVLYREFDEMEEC
T1 sequence (Q9WMX2 1658-1711) 2: T1 sequence (Q9WMX2 1658-1711) 1

NS4A (p14) = biological target: T2, NS4A (p14) (Hepatitis C virus genotype 1b, UniProt Q9WMX2); experiment: Immunoprecipitation/immunoblot of viral proteins in ACH-806 treated replicon cells (discovery of p14); assay type: cell-based
T2 construct: expressed in transfected cells; host or cells: Huh-7 cells harbouring the HCV subgenomic replicon (Huh-9-13)
T2 sequence (Q9WMX2 1658-1711 limits assumed): T1 sequence (Q9WMX2 1658-1711) 1

NS4A = biological target: T3, NS4A (Hepatitis C virus genotype 1b, UniProt Q9WMX2); experiment: Western blot of Huh-7 cells transfected with NS4A expression plasmid (FIG. 9); assay type: cell-based; conditions: Huh-7 cells transfected with NS4A plasmid, 2 μM overnight
T3 construct: expressed in transfected cells; host or cells: Huh-7
T3 sequence (Q9WMX2 1658-1711 limits assumed): T1 sequence (Q9WMX2 1658-1711) 1

[1] = system: replicon cellular lines resistant to other classes of HCV inhibitors; experiment: Replicon cellular lines resistant to other classes of HCV inhibitors; assay type: cell-based, hepatitis C virus; conditions: side by side comparison
HCV = conditions: hepatitis C patients; cited from earlier work
[2] = 10 μM, 2 μM, 0.4 μM and 0.08 μM

Q: Which “dimer p14 on Western blot” value (HCV NS4A protein) does the source give for CCCCCOc1ccc(NC(=S)NC(=O)c2cccnc2)cc1C(F)(F)F [ACH-806, 1-nicotinoyl-3-(4-(pentyloxy)-3-(trifluoromethyl)phenyl)thiourea] here?
A: The value was “readily detected”.

Q: What about the “level of NS3” value (NS4A (p14); [2]) of the same compound?
A: Its value is “reduced dose-dependently”.

Q: And the p14 accumulation (NS4A (p14); [2])?
A: Its p14 accumulation is “accumulates dose-dependently”.

Q: What about the “NS4B, NS5A or NS5B levels” value (NS4A (p14); Huh-9-13 cells, FIG. 5) of the same compound?
A: Its value is “no significant reduction”.

Q: What about the “mature NS3 and NS4A replicon proteins” value (NS4A (p14); Huh-9-13 cells, FIG. 5) of the same compound?
A: The value was “dose-dependent reduction”.

Q: And the “new NS4A containing species (p14)” value (NS4A (p14); Huh-9-13 cells, FIG. 5)?
A: The value was “does-dependent accumulation”.

Q: And the p14 band intensity (NS4A (p14); replicon cells treated 8 hours, anti-NS4A immunoprecipitates, versus untreated and NS5B inhibitor treated cells)?
A: The p14 band intensity was “substantially more intense”.

Q: What about the “p14 on Western blot” value (NS4A) of the same compound?
A: Its value is “greatly increased”.

Q: And the “susceptibility to ACH-806 of resistant lines versus parental line” value [1]?
A: The value was “No significant difference”.

Q: What about the “HCV RNA levels” value (HCV) of the same compound?
A: The value was “reduce HCV RNA levels”.
